The list does not hold the whole screen: it gathers tests that were run many times, whatever their T/C, doses with no T/C, and many T/C values between a quarter and a half above the control. Further doses and runs are listed elsewhere. T/C: endpoint of the treated group in % of that of the vehicle group. Some doses have a count of surviving animals in place of a T/C: the source files T/C as zero there, which appears to mark a toxic dose or a test without result, not a measured value. Some survivor counts are full or nearly so, which does not show that the dose was tolerated: the source hardly ever lists a survival T/C far under the control, and the zero likely stands for such cases as well. Counts of survivors are from the toxicity check (mostly the fifth day) where no day follows; animals may have died later. Schedule codes are those of the source, read here as Q, the interval in days (D) or hours (H), X, the number of doses. Some entries hold several experiments; the values are given in rising order. For survival time, the PubChem record calls one and a half times the control and up active, and a quarter to a half above the control has no call in these data; cut-offs in other NCI protocols can differ. Some T/C values carry the count of animals alive at the toxicity check (mostly the fifth day); where none is given, no animal had died by that day.

The subject of the assay is L1210 leukemia ip in BDF1 mice, survival T/C. As to the kind of experiment: NCI In Vivo Anticancer Drug Screen. Data for tumor model L1210 Leukemia (intraperitoneal) in B6D2F1 (BDF1) mice. To be noted: T/C endpoint: mean survival time, higher T/C = longer survival.
Where [1] appears, read: dose: 200.0 mg/kg/injection, schedule: Q01DX001 (ip), vehicle: carboxymethylcellulose (CMC).
[2] abbreviates: dose: 200.0 mg/kg/injection, schedule: Q01DX009 (ip), vehicle: Klucel (hydroxypropylcellulose) (HPC).
[3] abbreviates: dose: 400.0 mg/kg/injection, schedule: Q04DX003 (ip), vehicle: saline.
[4] abbreviates: dose: 200.0 mg/kg/injection, schedule: Q01DX009 (ip), vehicle: saline.
[5] abbreviates: dose: 400.0 mg/kg/injection, schedule: Q01DX009 (ip), vehicle: Klucel (hydroxypropylcellulose) (HPC).
Setting [6] is: dose: 100.0 mg/kg/injection, schedule: Q01DX009 (ip), vehicle: saline.
Setting [7] is: dose: 200.0 mg/kg/injection, schedule: Q01DX001 (ip), vehicle: saline with Tween-80.
[8] abbreviates: dose: 400.0 mg/kg/injection, schedule: Q01DX001 (ip), vehicle: saline with Tween-80.

As to `CCCCN(C)CCNc1cc(C)nc(/N=C(\N)Nc2ccc(Cl)c(Cl)c2)n1`, the survivor count (dose: 75.0 mg/kg/injection, schedule: Q01DX009 (ip), vehicle: Klucel (hydroxypropylcellulose) (HPC)) is recorded as 2 of 6.

`c1ccc2c(c1)ccc1c[n+]3c(ccc4ccccc43)cc12`: the survivor count reads like this: (dose: 100.0 mg/kg/injection, schedule: Q01DX001 (ip), vehicle: carboxymethylcellulose (CMC)) 2 of 6; under setting [1], 0 of 6; (dose: 400.0 mg/kg/injection, schedule: Q01DX001 (ip), vehicle: carboxymethylcellulose (CMC)) 0 of 6.

Regarding `C=CCOCCC(=O)OCC=C`, the survivor count by setting is: under setting [2], 2 of 6; under setting [3], 1 of 6.

As for `[F][Sn]([c]1ccc(Cl)cc1)([c]1ccc(Cl)cc1)[c]1ccc(Cl)cc1`, the survivor count reads like this: (dose: 1.5 mg/kg/injection, schedule: Q04DX003 (ip), vehicle: other) 4 of 6; (dose: 3.0 mg/kg/injection, schedule: Q04DX003 (ip), vehicle: other) 3 of 6; (dose: 6.0 mg/kg/injection, schedule: Q04DX003 (ip), vehicle: other) 2 of 6; (dose: 12.5 mg/kg/injection, schedule: Q04DX003 (ip), vehicle: other) 1 of 6; (dose: 25.0 mg/kg/injection, schedule: Q04DX003 (ip), vehicle: other) 0 of 6; (dose: 50.0 mg/kg/injection, schedule: Q04DX003 (ip), vehicle: other) 0 of 6. Moreover, the survivor count is listed as 0 of 6 (dose: 100.0 mg/kg/injection, schedule: Q04DX003 (ip), vehicle: other); 0 of 6 (dose: 200.0 mg/kg/injection, schedule: Q04DX003 (ip), vehicle: other); 0 of 6 (dose: 400.0 mg/kg/injection, schedule: Q04DX003 (ip), vehicle: other).

In the case of `c1cnc[c]([Hg][c]2cccnc2)c1`, the survivor count is 2 of 3 (dose: 100.0 mg/kg/injection, schedule: Q04DX002 (ip), vehicle: Klucel (hydroxypropylcellulose) (HPC)); 0 of 3 (dose: 200.0 mg/kg/injection, schedule: Q04DX002 (ip), vehicle: Klucel (hydroxypropylcellulose) (HPC)); 0 of 3 (dose: 400.0 mg/kg/injection, schedule: Q04DX002 (ip), vehicle: Klucel (hydroxypropylcellulose) (HPC)).

On to `CCC(C(C)N1CC(=O)NC(=O)C1)N1CC(=O)NC(=O)C1` (stereo not drawn), for which the T/C is, setting by setting: (dose: 0.25 mg/kg/injection, schedule: Q01DX009 (ip), vehicle: Klucel (hydroxypropylcellulose) (HPC)) 138 % of control; (dose: 1.0 mg/kg/injection, schedule: Q01DX009 (ip), vehicle: Klucel (hydroxypropylcellulose) (HPC)) 143 % of control; (dose: 2.0 mg/kg/injection, schedule: Q04DX003 (ip), vehicle: Klucel (hydroxypropylcellulose) (HPC)) 142 % of control [9 of 10 alive]; (dose: 4.0 mg/kg/injection, schedule: Q04DX003 (oral), vehicle: Klucel (hydroxypropylcellulose) (HPC)) 145 % of control; (dose: 16.0 mg/kg/injection, schedule: Q04DX003 (oral), vehicle: Klucel (hydroxypropylcellulose) (HPC)) 128 % of control; (dose: 32.0 mg/kg/injection, schedule: Q04DX003 (oral), vehicle: Klucel (hydroxypropylcellulose) (HPC)) 136 % of control [9 of 10 alive]. Further, the survivor count by setting is: (dose: 8.0 mg/kg/injection, schedule: Q01DX009 (ip), vehicle: Klucel (hydroxypropylcellulose) (HPC)) 10 of 10; (dose: 128.0 mg/kg/injection, schedule: Q04DX003 (oral), vehicle: Klucel (hydroxypropylcellulose) (HPC)) 9 of 10.

In the case of `O=[N+]([O-])c1cc([N+](=O)[O-])c(Br)cc1Cl`, the survivor count is, setting by setting: (dose: 40.0 mg/kg/injection, schedule: Q04DX003 (ip), vehicle: Klucel (hydroxypropylcellulose) (HPC)) 0 of 6; (dose: 75.0 mg/kg/injection, schedule: Q04DX003 (ip), vehicle: Klucel (hydroxypropylcellulose) (HPC)) 6 of 6; (dose: 150.0 mg/kg/injection, schedule: Q04DX003 (ip), vehicle: Klucel (hydroxypropylcellulose) (HPC)) 6 of 6; (dose: 300.0 mg/kg/injection, schedule: Q04DX003 (ip), vehicle: Klucel (hydroxypropylcellulose) (HPC)) 6 of 6.

Regarding `NC(CSS(=O)(=O)O)=NCc1ccncc1`, the T/C (dose: 100.0 mg/kg/injection, schedule: Q04DX002 (ip), vehicle: saline) was 130 % of control. Moreover, the survivor count by setting is: (dose: 200.0 mg/kg/injection, schedule: Q04DX002 (ip), vehicle: saline) 0 of 3 and 2 of 3; (dose: 400.0 mg/kg/injection, schedule: Q04DX002 (ip), vehicle: saline) 0 of 3.

Take `Nc1n[nH]c(N)n1.[Pt]`: the survivor count by setting is: under setting [4], 5 of 6; under setting [3], 2 of 6.

With `C/C=C\C=N\NC(=O)CCCCCCCCCCC`, the survivor count under setting [2] is recorded as 6 of 6 and the survivor count under setting [5] was 0 of 6.

Take `O=C(OC(=O)C1CC1)C1CC1`: the survivor count under setting [6] is on record as 2 of 6; the survivor count under setting [4] is reported as 0 of 6; the survivor count (dose: 200.0 mg/kg/injection, schedule: Q04DX003 (ip), vehicle: saline) is 2 of 6; the survivor count under setting [3] is reported as 0 of 6.

As for `CCCCCCCCC1N(C)CCCN1C`, the survivor count is given as 0 of 6 (dose: 100.0 mg/kg/injection, schedule: Q01DX009 (ip), vehicle: saline with Tween-80); 5 of 6 under setting [7]; 3 of 6 (dose: 200.0 mg/kg/injection, schedule: Q01DX009 (ip), vehicle: saline with Tween-80); 1 of 6 under setting [8].

Consider `O=C(NC/C=C/Br)Nc1c2ccccc2nc2ccccc12`, for which the survivor count is given as 0 of 6 under setting [6]; 0 of 6 under setting [4]; 0 of 6 (dose: 400.0 mg/kg/injection, schedule: Q01DX009 (ip), vehicle: saline).

For `O=C1c2cccc3c([N+](=O)[O-])ccc(c23)C(=O)N1CC1CCCO1` (stereo not drawn), the survivor count under setting [5] was 6 of 6.

Consider `CCCC[CH2][Pb]([CH2]CCCC)([CH2]CCCC)[O]C(C)=O`, for which the survivor count runs as follows: (dose: 100.0 mg/kg/injection, schedule: Q01DX001 (ip), vehicle: saline with Tween-80) 2 of 6; under setting [7], 0 of 6; under setting [8], 0 of 6.

As to `Clc1nccnc1C(Cl)(Cl)Cl`, the survivor count (dose: 200.0 mg/kg/injection, schedule: Q01DX009 (ip), vehicle: other) is given as 2 of 3.

With `O=C1CC(C(=O)O)C(C(=O)O)C1` (stereo not drawn), the survivor count (dose: 400.0 mg/kg/injection, schedule: Q01DX001 (ip), vehicle: saline) is recorded as 2 of 6.

Regarding `NC(=O)c1ccc(N)nc1`, the T/C (dose: 50.0 mg/kg/injection, schedule: Q01DX001 (ip), vehicle: carboxymethylcellulose (CMC)) was 132 % of control. The survivor count under setting [1] is 1 of 4.

Consider `ON(C(=NC1CCCCC1)c1ccccc1)c1ccccc1`, for which the survivor count is on record as 3 of 6 (dose: 75.0 mg/kg/injection, schedule: Q01DX001 (ip), vehicle: carboxymethylcellulose (CMC)); 0 of 6 (dose: 150.0 mg/kg/injection, schedule: Q01DX001 (ip), vehicle: carboxymethylcellulose (CMC)); 0 of 6 (dose: 300.0 mg/kg/injection, schedule: Q01DX001 (ip), vehicle: carboxymethylcellulose (CMC)).

For `CCCOC(=O)C#CC(=O)OCCC`, the survivor count runs as follows: (dose: 1.56 mg/kg/injection, schedule: Q01DX009 (ip), vehicle: carboxymethylcellulose (CMC)) 3 of 3; (dose: 12.5 mg/kg/injection, schedule: Q04DX002 (ip), vehicle: carboxymethylcellulose (CMC)) 5 of 6 and 3 of 3; (dose: 25.0 mg/kg/injection, schedule: Q04DX002 (ip), vehicle: carboxymethylcellulose (CMC)) 0 of 3 and 1 of 6; (dose: 50.0 mg/kg/injection, schedule: Q04DX002 (ip), vehicle: carboxymethylcellulose (CMC)) 0 of 3 and 0 of 6.
